Measured values reported in doi:10.1101/2023.01.15.524091.
Results are given in words; binding and its absence hold for the method and conditions named. Binding seen in cells or lysates may run through a third protein. These calls come from enrichment with a bait or labelling near it, and not all partners need be listed.

Amino acid sequences for entries named in this document (tags omitted). A change or cut given only in a name is not applied to a line headed by its entry.
UniProt Q01105: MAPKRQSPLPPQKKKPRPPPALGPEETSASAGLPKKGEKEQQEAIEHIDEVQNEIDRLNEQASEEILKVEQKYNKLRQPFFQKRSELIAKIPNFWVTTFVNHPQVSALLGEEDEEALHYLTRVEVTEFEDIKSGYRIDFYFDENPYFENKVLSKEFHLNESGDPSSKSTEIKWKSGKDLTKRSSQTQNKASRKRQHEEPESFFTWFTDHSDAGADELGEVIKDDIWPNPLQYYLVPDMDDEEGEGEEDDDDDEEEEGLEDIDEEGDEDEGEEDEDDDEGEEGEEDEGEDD
UniProt P39687: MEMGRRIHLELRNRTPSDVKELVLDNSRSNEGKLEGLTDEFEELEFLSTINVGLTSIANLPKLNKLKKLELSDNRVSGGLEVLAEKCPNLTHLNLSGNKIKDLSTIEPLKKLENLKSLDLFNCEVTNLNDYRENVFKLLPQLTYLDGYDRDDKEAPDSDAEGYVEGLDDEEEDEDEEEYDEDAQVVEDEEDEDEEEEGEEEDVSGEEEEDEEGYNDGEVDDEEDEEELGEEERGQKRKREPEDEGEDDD
UniProt P63330: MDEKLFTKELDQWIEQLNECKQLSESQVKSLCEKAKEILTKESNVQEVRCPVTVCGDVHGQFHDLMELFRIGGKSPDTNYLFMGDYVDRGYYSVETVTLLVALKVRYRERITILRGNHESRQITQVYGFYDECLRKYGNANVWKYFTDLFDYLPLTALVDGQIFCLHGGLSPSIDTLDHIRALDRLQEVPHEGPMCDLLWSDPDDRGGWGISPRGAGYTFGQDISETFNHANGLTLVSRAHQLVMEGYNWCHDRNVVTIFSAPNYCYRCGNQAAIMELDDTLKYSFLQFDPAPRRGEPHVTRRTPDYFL

Assays:
[1] = biological target: Myc-SET (human full-length SET, stably over-expressed in HEK293T; SET-OE) (human) (UniProt Q01105); experiment: affinity purification with mass spectrometry
[2] = biological target: Myc-SET (human full-length SET, stably over-expressed in Panc02) (human) (UniProt Q01105); experiment: affinity purification with mass spectrometry

Row | binding [1] | binding [2] | Substance
1 | binds | – | ANP32A (PP32), endogenous in HEK293T (from UniProt P39687 1-249)
2 | – | binds | PP2A-C, endogenous in Panc02 (from UniProt P63330) (enzyme)
